Source: doi:10.1101/2025.08.08.669356
Results are given in words; binding and its absence hold for the method and conditions named. Some results given as binding are weak or reduced against the parent protein; the word gives no strength. Where a sequence is shown, tags or fusion partners need not be part of it.

T1: recombinant human apolipoprotein ApoA4 (human) (UniProt P06727)
T1 sequence: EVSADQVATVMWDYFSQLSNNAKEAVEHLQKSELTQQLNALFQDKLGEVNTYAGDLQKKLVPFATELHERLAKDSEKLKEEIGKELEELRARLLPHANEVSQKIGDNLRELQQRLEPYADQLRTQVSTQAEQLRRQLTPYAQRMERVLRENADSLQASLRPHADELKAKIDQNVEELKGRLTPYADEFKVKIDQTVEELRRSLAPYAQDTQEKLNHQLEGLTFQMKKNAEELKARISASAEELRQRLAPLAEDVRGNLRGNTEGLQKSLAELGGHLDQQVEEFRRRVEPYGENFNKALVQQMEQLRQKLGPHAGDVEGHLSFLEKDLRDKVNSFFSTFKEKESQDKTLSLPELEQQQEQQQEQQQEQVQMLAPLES

T2: recombinant soluble human CD300LG-Fc fusion protein (human) (UniProt Q6UXG3)
T2 sequence: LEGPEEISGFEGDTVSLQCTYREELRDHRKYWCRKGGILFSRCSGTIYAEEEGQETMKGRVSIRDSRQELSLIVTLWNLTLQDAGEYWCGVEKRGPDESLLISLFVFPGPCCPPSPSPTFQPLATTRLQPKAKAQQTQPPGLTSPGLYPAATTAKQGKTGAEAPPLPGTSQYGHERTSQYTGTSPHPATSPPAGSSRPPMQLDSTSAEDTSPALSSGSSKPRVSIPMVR


Experiments:
[1] = molecular target: T1, recombinant human apolipoprotein ApoA4 (human); assay: ELISA
[2] = molecular target: T2, recombinant soluble human CD300LG-Fc fusion protein (human); assay: ELISA

| binding [1] | binding [2] | Binder |
| --- | --- | --- |
| binds | – | recombinant soluble human CD300LG-Fc fusion protein (Fc fusion, UniProt Q6UXG3 19-247) LEGPEEISGFEGDTVSLQCTYREELRDHRKYWCRKGGILFSRCSGTIYAEEEGQETMKGRVSIRDSRQELSLIVTLWNLTLQDAGEYWCGVEKRGPDESLLISLFVFPGPCCPPSPSPTFQPLATTRLQPKAKAQQTQPPGLTSPGLYPAATTAKQGKTGAEAPPLPGTSQYGHERTSQYTGTSPHPATSPPAGSSRPPMQLDSTSAEDTSPALSSGSSKPRVSIPMVR |
| – | binds | EQQQEQQQEQQQEQVQ (peptide, UniProt P06727 374-389, N-terminal biotin) [synthetic peptide of the human ApoA4 c-terminal motif] |
